From US20200384107A1
Results are given in words; binding and its absence hold for the method and conditions named. Some results given as binding are weak or reduced against the parent protein; the word gives no strength.

By UniProt entry, the sequences of proteins in these tests, tags left out. Where a name states a change or a piece, a line headed by the entry shows the natural chain unless it says otherwise. Chains listed by the source or under a name are the forms on record and can include a tag or linker.
rhesus CD40, recombinant (F6SNI1, form named): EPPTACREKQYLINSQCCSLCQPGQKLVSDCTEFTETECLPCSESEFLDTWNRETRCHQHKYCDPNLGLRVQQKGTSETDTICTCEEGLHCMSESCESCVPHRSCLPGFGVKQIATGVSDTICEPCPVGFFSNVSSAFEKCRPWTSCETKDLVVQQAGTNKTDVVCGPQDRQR
UniProt P25942: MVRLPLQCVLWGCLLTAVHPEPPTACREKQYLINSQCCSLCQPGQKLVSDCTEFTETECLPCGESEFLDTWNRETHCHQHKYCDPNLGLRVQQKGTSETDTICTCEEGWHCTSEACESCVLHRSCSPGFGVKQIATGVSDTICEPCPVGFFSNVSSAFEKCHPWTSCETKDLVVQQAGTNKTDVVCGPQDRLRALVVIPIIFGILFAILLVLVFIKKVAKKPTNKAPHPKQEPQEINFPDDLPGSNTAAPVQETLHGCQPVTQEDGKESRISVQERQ

What was measured:
[1] = target: rhesus CD40 on rhesus macaque B cells (CD20+ cells of PBMCs or blood) (rhesus) (UniProt F6SNI1); assay: flow cytometry on PBMCs
[2] = target: rhesus CD40, recombinant (rhesus) (UniProt F6SNI1); assay: ELISA, CD40 adsorbed to plates, goat anti-mouse IgG-HRP
[3] = target: rhesus CD40 on rhesus macaque B cells (CD20+ cells of PBMCs or blood) (rhesus) (UniProt F6SNI1); assay: flow cytometry, fluorochrome-conjugated 2C10 and anti-CD20 on PBMCs
[4] = target: rhesus CD40, recombinant (rhesus) (UniProt F6SNI1); assay: ELISA, rhesus CD40 adsorbed to the plate, detection with goat anti-mouse IgG-HRP
[5] = target: rhesus CD40 on rhesus macaque B cells (CD20+ cells of PBMCs or blood) (rhesus) (UniProt F6SNI1); assay: flow cytometry of rhesus PBMCs stained with fluorochrome-conjugated 2C10 and an anti-CD20 antibody
[6] = target: rhesus CD40 on rhesus macaque B cells (CD20+ cells of PBMCs or blood) (rhesus) (UniProt F6SNI1); assay: flow cytometry of blood of untreated control rhesus monkeys, day 28, stained with fluorescently labeled 2C10 and anti-CD20
[7] = target: rhesus CD40 on rhesus macaque B cells (CD20+ cells of PBMCs or blood) (rhesus) (UniProt F6SNI1); assay: receptor occupancy on blood B cells of treated rhesus monkeys
[8] = target: rhesus CD40 on rhesus macaque B cells (CD20+ cells of PBMCs or blood) (rhesus) (UniProt F6SNI1); assay: receptor occupancy on blood B cells of treated rhesus monkeys, flow cytometry
[9] = target: rhesus CD40 on rhesus macaque B cells (CD20+ cells of PBMCs or blood) (rhesus) (UniProt F6SNI1); assay: receptor occupancy on blood B cells of treated rhesus monkeys (10 or 25 mg/kg)
[10] = target: rhesus CD40 on rhesus macaque B cells (CD20+ cells of PBMCs or blood) (rhesus) (UniProt F6SNI1); assay: receptor occupancy on blood B cells of treated rhesus monkeys, flow cytometry with labeled 2C10
[11] = target: rhesus CD40 on rhesus macaque B cells (CD20+ cells of PBMCs or blood) (rhesus) (UniProt F6SNI1); assay: receptor occupancy by flow cytometry: blood of rhesus monkeys 28 days after one intravenous dose of h2C10, stained with fluorescently labeled 2C10 and anti-CD20
[12] = target: human CD40-MBP fusion (human) (UniProt P25942+P0AEX9); assay: SPR, BIACore 3000, h2C10 amine-coupled to a CM5 chip, CD40-MBP in solution

Measured: binding

B1: 2C10 (murine anti-CD40 monoclonal antibody) (antibody, V domains shown)
VH: QVQLQQSGAELAKPGASVKMSCKASGYTFTNYWMHWVKQRPGQGLEWIGYINPSNDYTKYNQKFKDKATLTADKSSNTAYMQLGSLTSEDSAVYYCARQGFPYWGQGTLVTVSA
VL: QIVLTQSPAIMSASPGEKVTMTCSASSSVSYMHWYHQRSGTSPKRWIYDTSKLASGVPARFSGSGSGTSYSLTISSMEAEDAATYYCHQLSSDPFTFGSGTKLEIK
binds: [1] | [2] | [3] | [4] | [5] | [6]

B2: humanized 2C10 in the stabilized IgG4 (S241P) format (antibody, V domains shown)
VH: QVQLVQSGAEVKKPGASVKVSCKASGYTFTNYWMHWVRQAPGQRLEWIGYINPSNDYTKYNQKFKDRATLTADKSANTAYMELSSLRSEDTAVYYCARQGFPYWGQGTLVTVSS
VL: EIVLTQSPATLSLSPGERATLSCSASSSVSYMHWYQQKPGQAPRRWIYDTSKLASGVPARFSGSGSGTDYTLTISSLEPEDFAVYYCHQLSSDPFTFGGGTKVEIKR
binds: [7] | [8] | [9] | [10] | [11]

B3: humanized 2C10, clone 2.189.2 (2C10_h3 + 2C10_l2) (antibody, V domains shown)
VH: B2 VH
VL: EIVLTQSPATLSLSPGERATLSCSASSSVSYMHWYQQKPGQAPRRWIYDTSKLASGVPARFSGSGSGTDYTLTISSLEPEDFAVYYCHQLSSDPFTFGGGTKVEIK
binds: [12]
